doi:10.1101/2020.07.05.188557
No constants are given. Whether binding was seen depends on the method and setting. In cells and extracts the contact can be indirect. Some results given as binding are weak or reduced against the parent protein; the word gives no strength. Tags and fused reporters may be left off the sequences shown.

T1: Bap2-Cub-GST-6xHA (S. cerevisiae) (UniProt P38084)
T1 sequence: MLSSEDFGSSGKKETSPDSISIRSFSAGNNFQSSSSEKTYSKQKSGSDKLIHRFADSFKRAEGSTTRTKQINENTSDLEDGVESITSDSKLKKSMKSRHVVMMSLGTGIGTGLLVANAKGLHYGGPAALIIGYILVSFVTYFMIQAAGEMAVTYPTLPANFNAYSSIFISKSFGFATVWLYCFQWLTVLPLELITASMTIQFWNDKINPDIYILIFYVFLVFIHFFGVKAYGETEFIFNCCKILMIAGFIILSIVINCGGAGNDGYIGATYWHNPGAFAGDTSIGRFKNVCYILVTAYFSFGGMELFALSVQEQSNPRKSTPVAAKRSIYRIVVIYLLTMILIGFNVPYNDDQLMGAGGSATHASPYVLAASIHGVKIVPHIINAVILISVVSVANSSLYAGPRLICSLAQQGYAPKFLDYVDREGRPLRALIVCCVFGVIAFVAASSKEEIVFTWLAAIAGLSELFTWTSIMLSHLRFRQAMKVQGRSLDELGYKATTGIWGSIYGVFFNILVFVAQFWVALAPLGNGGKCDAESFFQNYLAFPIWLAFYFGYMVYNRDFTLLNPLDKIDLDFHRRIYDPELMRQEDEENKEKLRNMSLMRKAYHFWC

T2: Agp1-Cub-GST-6xHA (S. cerevisiae) (UniProt P25376)
T2 sequence: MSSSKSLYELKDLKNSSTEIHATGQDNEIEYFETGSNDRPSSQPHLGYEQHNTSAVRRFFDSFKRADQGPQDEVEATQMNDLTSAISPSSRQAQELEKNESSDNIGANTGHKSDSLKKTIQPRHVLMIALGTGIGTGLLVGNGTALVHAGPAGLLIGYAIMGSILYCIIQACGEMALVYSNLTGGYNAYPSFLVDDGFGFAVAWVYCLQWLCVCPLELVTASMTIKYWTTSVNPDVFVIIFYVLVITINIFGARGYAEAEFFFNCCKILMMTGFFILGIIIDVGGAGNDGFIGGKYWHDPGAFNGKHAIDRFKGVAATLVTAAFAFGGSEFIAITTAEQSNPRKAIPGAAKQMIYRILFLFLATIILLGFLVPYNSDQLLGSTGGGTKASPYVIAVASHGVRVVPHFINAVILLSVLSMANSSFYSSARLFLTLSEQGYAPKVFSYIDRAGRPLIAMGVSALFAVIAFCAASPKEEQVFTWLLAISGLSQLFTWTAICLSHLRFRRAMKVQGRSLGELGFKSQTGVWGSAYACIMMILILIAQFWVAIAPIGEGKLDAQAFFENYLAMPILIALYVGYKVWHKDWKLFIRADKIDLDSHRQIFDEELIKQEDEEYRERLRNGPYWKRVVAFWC

T3: Gnp1-Cub-GST-6xHA (S. cerevisiae) (UniProt P48813)
T3 sequence: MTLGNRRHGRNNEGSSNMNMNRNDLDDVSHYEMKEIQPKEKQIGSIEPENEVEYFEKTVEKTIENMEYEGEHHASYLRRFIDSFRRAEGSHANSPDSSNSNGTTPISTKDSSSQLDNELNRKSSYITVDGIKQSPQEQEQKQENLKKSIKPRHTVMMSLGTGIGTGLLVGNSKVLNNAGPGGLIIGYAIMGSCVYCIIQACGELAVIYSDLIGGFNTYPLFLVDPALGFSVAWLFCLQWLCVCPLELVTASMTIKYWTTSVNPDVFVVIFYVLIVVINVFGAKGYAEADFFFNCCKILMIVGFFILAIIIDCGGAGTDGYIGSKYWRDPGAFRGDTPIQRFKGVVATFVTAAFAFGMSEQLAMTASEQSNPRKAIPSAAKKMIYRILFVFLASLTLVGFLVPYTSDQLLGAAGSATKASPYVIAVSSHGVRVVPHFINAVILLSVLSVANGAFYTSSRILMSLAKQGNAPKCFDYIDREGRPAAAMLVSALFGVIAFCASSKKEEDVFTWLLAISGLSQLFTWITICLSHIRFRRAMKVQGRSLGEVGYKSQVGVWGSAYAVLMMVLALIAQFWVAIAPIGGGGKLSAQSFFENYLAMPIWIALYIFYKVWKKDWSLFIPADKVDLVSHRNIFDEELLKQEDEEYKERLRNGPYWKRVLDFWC

T4: Gal2-Cub-GST-6xHA (S. cerevisiae) (UniProt P13181)
T4 sequence: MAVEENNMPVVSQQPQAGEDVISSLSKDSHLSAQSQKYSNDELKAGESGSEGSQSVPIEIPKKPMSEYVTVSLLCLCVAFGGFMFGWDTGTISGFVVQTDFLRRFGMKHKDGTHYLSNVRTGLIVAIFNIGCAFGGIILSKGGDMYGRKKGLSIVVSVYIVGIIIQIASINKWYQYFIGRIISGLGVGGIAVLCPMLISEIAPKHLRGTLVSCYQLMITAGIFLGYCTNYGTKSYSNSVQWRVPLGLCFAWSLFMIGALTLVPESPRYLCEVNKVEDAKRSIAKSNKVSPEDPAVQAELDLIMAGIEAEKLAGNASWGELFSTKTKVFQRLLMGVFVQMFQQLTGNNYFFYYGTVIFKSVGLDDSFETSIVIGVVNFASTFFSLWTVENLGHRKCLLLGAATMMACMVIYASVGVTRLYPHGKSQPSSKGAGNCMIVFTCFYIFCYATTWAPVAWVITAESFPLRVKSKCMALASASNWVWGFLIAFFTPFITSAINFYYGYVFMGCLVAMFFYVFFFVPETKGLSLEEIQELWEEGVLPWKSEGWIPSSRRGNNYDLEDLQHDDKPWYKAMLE

B1: Shr3-NubA (protein, UniProt Q02774 1-210)
chain: MFSYSDFCSIGTAMILSATTFLMGVFFSNMPYDYHLLFNPNSTQEHFDLALRHYQILHETPLPVIVTLCVVAGIGLVGGTIKVFKPNPELQMFEYCSLGLYVLAICVFLTNVKTGIDCSVSHNWGEVTENQGLAVIASSNIILLVMFAGVIILQIGLWYSNWDLQKRLKEFYAQEEREAANAGKKTEKVDNAKKNDNKSKGAQKRKNAKK
B2: Shr3Δ94-NubA (protein, UniProt Q02774)
chain: MFSYSDFCSIGTAMILSATTFLMGVFFSNMPYDYHLLFNPNSTQEHFDLALRHYQILHETPLPVIVTLCVVAGIGLVGGTIKVFKPNPELQMFEYCSLGLYVLAICVFLTNVKTGIDCSVTENQGLAVIASSNIILLVMFAGVIILQIGLWYSNWDLQKRLKEFYAQEEREAANAGKKTEKVDNAKKNDNKSKGAQKRKNAKK

Key:
Experiment in all cases: split reporter
[1] = molecular target: T1, Bap2-Cub-GST-6xHA (S. cerevisiae)
[2] = molecular target: T2, Agp1-Cub-GST-6xHA (S. cerevisiae)
[3] = molecular target: T3, Gnp1-Cub-GST-6xHA (S. cerevisiae)
[4] = molecular target: T4, Gal2-Cub-GST-6xHA (S. cerevisiae)

| Binder | binding [1] | binding [2] | binding [3] | binding [4] |
| --- | --- | --- | --- | --- |
| B1 | binds | binds | binds | binds weakly |
| B2 | binds | binds | binds |  |
